Test results as given in publication PMC3026020.
No constants are given. Whether binding was seen depends on the method and setting. Binding seen in cells or lysates may run through a third protein. Some results given as binding are weak or reduced against the parent protein; the word gives no strength.

Amino acid sequences for entries named in this document (tags omitted).
UniProt Q02156: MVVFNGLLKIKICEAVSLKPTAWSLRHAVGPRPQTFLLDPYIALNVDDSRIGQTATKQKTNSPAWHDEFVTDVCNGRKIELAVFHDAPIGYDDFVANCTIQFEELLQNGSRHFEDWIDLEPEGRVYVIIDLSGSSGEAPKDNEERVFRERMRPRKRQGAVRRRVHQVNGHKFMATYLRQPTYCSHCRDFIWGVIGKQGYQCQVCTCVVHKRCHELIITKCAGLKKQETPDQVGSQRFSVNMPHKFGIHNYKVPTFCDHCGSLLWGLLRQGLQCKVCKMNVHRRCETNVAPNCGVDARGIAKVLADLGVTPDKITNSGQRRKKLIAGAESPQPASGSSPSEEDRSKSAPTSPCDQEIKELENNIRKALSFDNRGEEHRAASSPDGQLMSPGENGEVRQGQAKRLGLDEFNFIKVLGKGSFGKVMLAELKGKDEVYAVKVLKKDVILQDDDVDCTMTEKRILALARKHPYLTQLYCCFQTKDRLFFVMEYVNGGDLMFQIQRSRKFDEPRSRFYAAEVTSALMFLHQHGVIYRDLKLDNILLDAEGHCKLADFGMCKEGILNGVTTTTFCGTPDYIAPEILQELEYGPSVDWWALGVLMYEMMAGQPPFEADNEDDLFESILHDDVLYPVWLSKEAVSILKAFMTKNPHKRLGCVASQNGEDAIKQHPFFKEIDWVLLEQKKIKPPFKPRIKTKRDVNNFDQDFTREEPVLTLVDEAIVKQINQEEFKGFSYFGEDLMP

Molecular target: T1, keratin 18 (human (endogenous in SMMC-7721)) (UniProt P05783)
T1 sequence: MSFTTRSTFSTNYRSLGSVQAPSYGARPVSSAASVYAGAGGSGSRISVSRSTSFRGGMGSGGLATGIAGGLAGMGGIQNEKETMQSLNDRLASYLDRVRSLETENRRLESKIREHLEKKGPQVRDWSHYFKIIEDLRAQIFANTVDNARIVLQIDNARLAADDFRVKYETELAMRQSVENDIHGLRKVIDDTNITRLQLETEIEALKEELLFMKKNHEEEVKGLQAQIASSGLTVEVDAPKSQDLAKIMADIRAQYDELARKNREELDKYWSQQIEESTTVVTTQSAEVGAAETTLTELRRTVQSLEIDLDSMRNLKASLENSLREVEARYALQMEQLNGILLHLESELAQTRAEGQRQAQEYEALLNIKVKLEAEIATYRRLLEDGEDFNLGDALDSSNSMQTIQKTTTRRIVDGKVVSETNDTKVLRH
Experiment: co-IP; SMMC-7721 lysate in keratin lysis buffer with 1 X binding buffer (40 mM KCl, 3 mM MgCl2, 10 mM HEPES pH 7.8, 1 mM DTT), 4°C; precipitated with anti-CK18 antibody and an antibody against IgG; Western blots for PKCε and CK18; control lanes without RNA, other lanes with increasing C/EBPβ 3′UTR RNA or β-tubulin RNA

In the case of “protein kinase Cε (from UniProt Q02156 1-737) (enzyme)”, the binding is reported as “binds”.
